Results: paper PMC5467231

Molecular target: T1, recombinant human MCAM/Fc chimera (Sino Biological 10115-H02H) (human) (UniProt P43121)
T1 sequence: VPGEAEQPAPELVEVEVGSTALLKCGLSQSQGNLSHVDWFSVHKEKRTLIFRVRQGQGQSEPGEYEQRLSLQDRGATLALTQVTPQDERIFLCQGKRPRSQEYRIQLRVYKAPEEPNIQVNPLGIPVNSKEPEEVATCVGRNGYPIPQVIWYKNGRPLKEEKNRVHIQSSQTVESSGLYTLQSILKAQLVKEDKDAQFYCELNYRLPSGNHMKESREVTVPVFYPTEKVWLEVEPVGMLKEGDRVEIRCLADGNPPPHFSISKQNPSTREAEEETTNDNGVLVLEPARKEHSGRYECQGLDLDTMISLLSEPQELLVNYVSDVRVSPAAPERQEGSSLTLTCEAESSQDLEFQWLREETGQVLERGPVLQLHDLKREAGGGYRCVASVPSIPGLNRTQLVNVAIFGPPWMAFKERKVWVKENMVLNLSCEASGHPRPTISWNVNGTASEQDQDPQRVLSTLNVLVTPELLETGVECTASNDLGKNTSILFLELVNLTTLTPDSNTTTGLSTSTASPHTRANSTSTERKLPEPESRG
Experiment: SPR; Biacore T100, CM5 chip, room temperature, 1x PBS with 0.05% Tween 20; MCAM/Fc, FGFR1/Fc, FGFR2/Fc or IgG1 Fc immobilised by amine coupling, soluble FGF2, FGF4 or FGF8 flowed over; 1:1 binding model; both purified

recombinant FGF8a (R&D Systems 4745-F8-050) (ligand)
binding: no binding

These are yes or no findings as the source states them, for the method shown. Sequences can lack the tags named with a protein.
